# Measured values from PubChem BioAssay AID1273 (Columbia University Molecular Screening Center, 2008).
# Among all 130,000 compounds or so, about 1,200 (0.92%) were called active. This list was built around the results that the source calls inconclusive (neither active nor inactive); the mix of calls is not that of the screen.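 How the source made its calls: active means inhibition above the mean plus 3 SD, with well images judged a real hit on visual review (cut at about 60% in these data, passing the limit was not always enough); inconclusive means inhibition over the cutoff but images rejected on review; inactive means inhibition not above the cutoff.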
# Experiment: inhibitors of insulin promoter-driven GFP, primary screen, imaging, TRM-6 cells (human fetal islet line), eGFP reporter, cell count (AID 1273)
# Details: at 2 µM, hits give high values, reporter expression induced with tamoxifen
row,SMILES,inhibition
1,O=S(=O)(N1CCOCC1)n1c(Cc2ccccc2)nc2ccccc21,active: 70.4%
2,Cc1c(-c2ccccc2)oc2c(C(=O)OCC(=O)Nc3ccc(C(N)=O)cc3)cccc2c1=O,inactive: 18.9%
3,CCN(CC)C(=O)CSc1nc(-c2ccc(C)cc2)nc2c1COC(C)(C)C2,inconclusive: 69.4%
4,CCn1c(NC(=O)c2ccco2)c(-c2ccccc2Cl)c(=O)c2ccccc21,active: 90%
5,CSc1ncccc1C(=O)OCC(=O)c1ccccc1,inconclusive: 73.7%
6,C=CCn1c(C)cc(C(=O)COC(=O)CNC(=O)c2ccccc2)c1C,inconclusive: 66.7%
7,Cc1ccc(Nc2c(-c3ccc(N4CCOCC4)cc3)nc3ncccn23)cc1C,inconclusive: 66.7%
8,Cc1c(C(=O)OC2CCCC2)[nH]c2c1C(=O)CC(c1ccco1)C2 (stereo not given),inactive: -360%
9,O=C(CN1C(=O)/C(=C\c2cccc(F)c2)Oc2ccccc21)N1CCN(c2ccccn2)CC1,inactive: -21.1%
10,CCN(CC#CCC(O)(c1ccccc1)C1CCCC1)C(C)C (stereo not given),inactive: -55.3%
11,CC(C)N1CCc2c(sc(NC(=O)c3ccc(S(=O)(=O)N4CCOCC4)cc3)c2C#N)C1,inconclusive: 71.4%
12,COc1ccc(C2CC(c3cccs3)Nc3nnnn32)cc1 (stereo not given),inconclusive: 78.6%
13,CNC(=O)/C=C1\NC(C)(C)Cc2ccccc21,inconclusive: 86.7%
14,O=C(NCC(=O)N(Cc1cccs1)C(C(=O)NC1CCCCC1)c1ccncc1)c1ccco1 (stereo not given),inactive: -253%
15,c1ccc2c(c1)[nH]c1c(NCC3CCCO3)ncnc12 (stereo not given),inconclusive: 75%
16,c1ccc(CCNc2ccc3nncn3n2)cc1,inconclusive: 100%
17,CCN1CCN(c2ncc(C(=O)Nc3cc(Cl)ccc3OC)c3ccccc23)CC1,inactive: -77.8%
18,CCNC(=O)N1CCOCC1,active: 85.7%
19,COc1cc(CNC2CCCC2)cc(Br)c1OCC(=O)Nc1ccccc1C,inactive: 15%
20,CC(=O)NC(C)C(=O)OCC(=O)Nc1ccc(Br)cc1 (stereo not given),active: 89.3%
21,Cc1ccc(OCc2ccc(C(=O)Nc3ccc(C(N)=O)cc3)o2)c([N+](=O)[O-])c1,inconclusive: 73.3%
22,c1ccc(-c2cc(-c3ccccc3)n3ncnc3n2)cc1,active: 69.2%
23,O=C(CCC(=O)c1cccs1)NCc1ccc(Cl)cc1,active: 70%
24,Cc1ccc(-c2csc(NC(=O)Cc3ccc(F)cc3)n2)o1,inconclusive: 71.4%

# Five structures out of the list, sorted by SMILES length, ascending:
row,SMILES,inhibition
12,COc1ccc(C2CC(c3cccs3)Nc3nnnn32)cc1 (stereo not given),inconclusive: 78.6%
15,c1ccc2c(c1)[nH]c1c(NCC3CCCO3)ncnc12 (stereo not given),inconclusive: 75%
20,CC(=O)NC(C)C(=O)OCC(=O)Nc1ccc(Br)cc1 (stereo not given),active: 89.3%
7,Cc1ccc(Nc2c(-c3ccc(N4CCOCC4)cc3)nc3ncccn23)cc1C,inconclusive: 66.7%
11,CC(C)N1CCc2c(sc(NC(=O)c3ccc(S(=O)(=O)N4CCOCC4)cc3)c2C#N)C1,inconclusive: 71.4%

# Continued.

row,SMILES,inhibition
1,CCCc1cc(=O)[nH]c(-n2[nH]c3c(c2=O)CCCC3)n1,inactive: -3.57%
2,COc1ccc(CN(C)CC(=O)NC2CCCc3ccccc32)cc1OC (stereo not given),inactive: -40.7%
3,c1ccc(-c2nc(-c3ccncc3)no2)cc1,inconclusive: 80%
4,COc1ccc(C)cc1N(CC(=O)N/N=C/c1ccccc1C(=O)O)S(=O)(=O)c1ccccc1,inactive: -14.3%
5,CCn1c(-c2cccs2)nc2ccccc21,inconclusive: 81.2%
6,Cc1ccc(C(=O)CSc2nc(C)cc(C)c2C(N)=O)cc1,inconclusive: 70.8%
7,C=CCc1c(C)[nH]c(=O)[nH]c1=O,active: 77.8%
8,CC1=C(C(=O)N2CCCCCC2)C2(CCC(C)CC2)OC1=O (stereo not given),inconclusive: 76.9%
9,CC(C)CCN1C(=O)c2ccc(C(=O)Nc3cccc(S(N)(=O)=O)c3)cc2C1=O,inconclusive: 64.3%
10,COc1ccc(NC(=O)CSc2nc3ccsc3c(=O)n2Cc2ccccn2)c(OC)c1,inactive: 21.4%
11,CCOc1ccc(-c2nnn(CC(=O)N3CCCC3)n2)cc1OCC,inconclusive: 82.9%
12,CC(C)CC(=O)NCCCN1CCN(CCCNC(=O)CC(C)C)CC1,inconclusive: 83.3%
13,Cc1cnc(C(=O)OCC(=O)NCCCc2ccccc2)cn1,inconclusive: 75%
14,COc1ccc(C(=O)NC(Nc2ccccc2)C(Cl)(Cl)Cl)cc1 (stereo not given),inconclusive: 74.2%
15,COc1ccc(Oc2nnnn2-c2ccccc2)cc1,inconclusive: 81.2%
16,Cc1ccccc1C1NC(=S)NC2=C1C(=O)CCC2 (stereo not given),inactive: -57.9%
17,Cc1cccc2sc(NNC(=O)c3ccc(S(=O)(=O)N4CCc5ccccc5C4)cc3)nc12,active: 70.7%
18,Clc1cccc(Cl)c1/C=C/c1nc2ccccc2[nH]1,inconclusive: 73.9%
19,Cn1c(N)c(C(=O)COC(=O)C2CCCN2C(=O)c2cccs2)c(=O)n(C)c1=O (stereo not given),inconclusive: 71.4%
20,COc1ccc(Cl)cc1NC(=O)c1cnc2sccn2c1=O,inconclusive: 100%
21,CC(=O)NC1C(=O)SC1(C)C (stereo not given),active: 87.5%
22,C=CC[N+](C)(C)C/C(Cl)=C(\Cl)c1ccccc1,inconclusive: 71.4% [cytotoxic]
23,CNC(=O)CSCc1c(F)cccc1Cl,inconclusive: 81.2%
24,Cc1ccc(S(=O)(=O)CC(=O)Nc2ccc(Cl)cn2)cc1,inconclusive: 81.8%

# No new results follow: an excerpt of the list.
row,SMILES,inhibition
11,CCOc1ccc(-c2nnn(CC(=O)N3CCCC3)n2)cc1OCC,inconclusive: 82.9%
12,CC(C)CC(=O)NCCCN1CCN(CCCNC(=O)CC(C)C)CC1,inconclusive: 83.3%

# (cont.)

row,SMILES,inhibition
1,COC(=O)CC(NS(=O)(=O)c1cccs1)c1ccccc1Cl (stereo not given),inconclusive: 70.8%
2,COc1cccc(C2=CC(c3cc(OC)ccc3OC)n3nnnc3N2)c1 (stereo not given),inactive: -14.8%
3,CCCc1nc2ccccc2[nH]1,active: 80%
4,CSc1ccc(OC2CCCCC2NS(=O)(=O)c2ccc(Cl)cc2)cc1 (stereo not given),active: 100%
5,CC1=C(C(=O)Nc2ccc(Br)cc2)C(c2ccco2)NC(=O)N1 (stereo not given),active: 67.7%
6,Cc1nn(CCC(=O)NNC(=S)Nc2ccc([N+](=O)[O-])cc2)c(C)c1[N+](=O)[O-],inconclusive: 75%
7,CCCCC1NC(C(=O)O)CS1 (stereo not given),inconclusive: 76.9%
8,CCCNC(=O)CN1C(=O)NC(CCc2ccccc2)C1=O (stereo not given),inconclusive: 72.7%
9,COc1ccc(N2CCN(C(=O)CSc3ncnc4c3cnn4-c3ccccc3C)CC2)cc1,inconclusive: 83.3%
10,Cc1ccc2cc3c(NC(=O)c4ccco4)nn(C)c3nc2c1,inconclusive: 75%
11,COc1cc(C(=O)N(Cc2ccc(N(C)C)cc2)C2CCS(=O)(=O)C2)cc(OC)c1OC (stereo not given),inconclusive: 90%
12,O=C(OCC(=O)N1CCCc2ccccc21)c1ccc(Cl)nc1,active: 80%
13,COC(=O)c1cscc1NC(C)=O,active: 75%
14,CCCNC(=O)Cn1nc(C(F)(F)F)c2c1CCC2,inconclusive: 75%
15,CCC(C)[C@H](NC(=O)N1CCN(C)CC1)C(=O)OC (stereo not given in full),inactive: -37.5%
16,Cc1cccc(OCc2n[nH]c(=S)n2C2CCCCC2)c1,inconclusive: 75%
17,O=C(CSC1=Nc2ccccc2C2CC=NN12)Nc1ccc2c(c1)OCO2 (stereo not given),inconclusive: 72.7%
18,O=C(CN1CCN(C(=O)c2ccco2)CC1)Nc1ccc(Cl)c(S(=O)(=O)N2CCOCC2)c1,inactive: 45.5%
19,COC(=O)c1ccc(-c2cc(C(=O)O)c3cc4c(cc3n2)OCCO4)cc1,inconclusive: 72.7%
20,CC(C)C(=O)c1cc2c(cc1NC(=O)c1ccccc1)OCCO2,active: 88.6%
21,O=C(CSc1nc2c(sc3ccccc32)c(=O)n1-c1ccccc1)NCc1ccco1,active: 72.7%
22,Cc1ccccc1/C=C1\SC(=S)N(/N=C/c2cc([N+](=O)[O-])ccc2O)C1=O,inactive: 20%
23,O=C(O)C1CC=CCC1C(=O)c1ccccc1 (stereo not given),active: 65.6%
24,Cc1ccc(/C(=N\O)c2oc3c(C)c4oc(=O)cc(C)c4cc3c2C)cc1,inconclusive: 81.2%

row,SMILES,inhibition
1,Cc1ccc(C(c2nnnn2CS(=O)(=O)c2ccc(C)cc2)N2CCN(c3ncccn3)CC2)cc1 (stereo not given),inconclusive: 83.8%
2,COc1ccc(-n2ncc(N(C)n3cccc3)c(Cl)c2=O)cc1,inactive: 36.4%
3,CCOC(=O)c1c(NC(=O)CSc2nc3ccccc3o2)sc(C(C)=O)c1C,inactive: -53.9%
4,O=C(O)CCC(=O)Nc1sc2c(c1C(=O)Nc1cccc3ccccc13)CCCCC2,inconclusive: 64.3%
5,CCCCN(C)C1=Nc2cccc3cccc1c23,active: 75.3%
6,Cc1onc(-c2ccccc2)c1C(=O)N/N=C/C(Br)=C/c1ccccc1,inactive: -60%
7,On1c(-c2ccc(Cl)cc2)nc2ccccc21,inconclusive: 70.4%
8,COc1ccc2ccccc2c1CN1CCN(Cc2ccccc2)CC1,active: 78.4%
9,Cc1ccc(CN2CCN(/N=C/C=C/c3ccccc3[N+](=O)[O-])CC2)cc1,inconclusive: 73.3%
10,CCOC(=O)CSc1nc2cc(C(=O)OC)ccc2c(=O)n1CCN1CCOCC1,inactive: 16.7%
11,COc1ccc(CN(Cc2cc3cccc(C)c3n3nnnc23)C(=O)N2CCOCC2)cc1,inactive: -5%
12,O=C1CC(C(=O)Nc2ccc(C(=O)N3CCOCC3)cc2)C2(CCCCC2)O1 (stereo not given),inconclusive: 80%
13,O=C(Nn1cnnc1)c1cc2c(s1)CCCCC2,inconclusive: 76.9%
14,C/C(Cn1nc([N+](=O)[O-])cc1C)=N\NC(=O)c1ccc(C(C)(C)C)cc1,inconclusive: 76.3%
15,COc1ccc2c(c1)nc(SCC(O)c1ccccc1)n2C (stereo not given),inactive: 13.3%
16,N#Cc1c(-c2ccco2)nc(NCC2CCCO2)[nH]c1=O (stereo not given),inconclusive: 76.2%
17,Cc1cc(Oc2ccc(=O)n(C)n2)nc(Oc2ccc(=O)[nH]n2)n1,inconclusive: 71.4%
18,CCSc1cnc(-c2ccccc2)n1CC,inconclusive: 84.6%
19,CCOC(=O)N1CCN(C(=O)C2c3cc(OC)c(OC)cc3C(=O)N3CCc4ccccc4C23)CC1 (stereo not given),active: 80%
20,Cc1nc(NC(=O)c2ccccc2)sc1-c1csc(NCCc2ccccc2)n1,inconclusive: 84.6%
21,CCOC(=O)c1c(/N=C/N(C)C)sc(C(=O)OC)c1C,inconclusive: 73.3%
22,Cc1ccc(-c2c3c([nH]c(=S)c2C#N)CCCC3)o1,inconclusive: 72.7%
23,O=c1[nH]n2c(C(F)(F)F)cc(C3CC3)nc2c1N=Nc1ccccc1,inconclusive: 86.7%
